{
  "source": "patent US20240041769A1",
  "about": "“COMPOSITIONS AND METHODS FOR DELIVERY OF ANTICANCER AGENTS WITH IMPROVED THERAPEUTIC INDEX” (NanoTech Pharma Inc., priority 2020, published 2024)",
  "key": {"[1]": {"system": "H1975 NSCLC xenograft tumors", "test": "In-vivo efficacy in H1975 xenograft model", "set-up": "species or system BALB/c nude mice"}, "[2]": {"system": "HT-29 colorectal xenograft tumors", "test": "In-vivo efficacy in HT-29 xenograft model", "set-up": "species or system BALB/c nude mice"}},
  "note": "At least one compound was matched to its structure with a doubt left. Some entries share one result that the patent states for a list of compounds.",
  "data": [
    {"compound": "CN(C)C/C=C/C(=O)Nc1cc2c(Nc3ccc(F)c(Cl)c3)ncnc2cc1O[C@H]1CCOC1", "note": "[AFA, Afatinib]", "values": [
      {"measurement": "dissected xenograft tumor size at completion of study", "setting": "[1]", "value": "dramatically larger tumor size"},
      {"measurement": "average tumor size increase", "setting": "[1]; IV Q2D, after the full course of treatment, n=6", "value": "> 15", "unit": "fold"},
      {"measurement": "dissected xenograft tumor size at completion of study", "setting": "[2]", "value": "dramatically larger tumor size"},
      {"measurement": "average tumor size increase", "setting": "[2]; IV Q2D, after 19 days of treatment, n=6", "value": "> 6", "unit": "fold"}
    ]}
  ]
}
